Data from patent US20230059124A1, “Novel TAS2R38 Bitter Taste Receptor Agonist” (priority 2021, published 2023).

Experiments:
TAS2R38 gene [1] = assay: qPCR TAS2R38 gene expression in hTBEC 2 culture; format: cell-based, human; conditions: 1 μM; for Tas2R38tb (Ct): 3prime primer pair; for Tas2R38-5 (Ct): 5prime primer pair; for Tas2R38C (Ct): Tas2R38C DS primer pair; for Delta Tas2R38 3prime / Delta Tas2R38 5prime / Delta Tas2R38C DS: vs Bactin
Text: (§1) Currently, very little is known about compounds that directly agonize and regulate TAS2R38 expression. Because of this, research related to the prenylflavonoid xanthohumol's effects on gene expression was compared with other TAS2R38 targeting compounds, namely sinigrin, a glucosinolate connected to the family of glucosides found in the Brassicaceae vegetable family and found in foods such as brussels sprouts and broccoli. […] selectively triggers the taster variant of the TAS2R38 receptor (Meyerhof, W. et al. The Molecular Receptive Ranges of Human TAS2R Bitter Taste Receptors. Chem Sense (2010) 35: 157-70.) […] was used as a comparator at a concentration of 1 the same concentration as xanthohumol (1 μM). Two hTBEC cultures were selected for this initial study. hTBEC 1 is derived from one of the most bitter-responsive cultures, which has a moderate/moderately low basal gene expression level of TAS2R38. hTBEC 2 is derived from a culture that responds to bitter stimuli, but has a high response in particular to TAS2R38 expression compared with other hTBEC repositories. RNA was harvested from cultures treated cultures and control cultures at 1 μM lead compound at 24 and 48 hours post treatment. Following is a table that explains the experimental paradigm in full: [table] In an effort to establishing a comprehensive understanding of xanthohumol's effects on gene expression, 3 unique primer pairs to accurately capture the TAS2R38 gene were developed as cultures. […] The published NCBI genetic sequence for the region of chromosome 7q that encodes TAS2R38 and overlay map the SNP variant markers to ensure the primers cover strategic regions of the TAS2R38 gene. For probing TAS2R38, 3 individual primer pairs were used for a comprehensive view of how the compound may be “hitting” the gene.

TAS2R38 gene [2] = assay: qPCR TAS2R38 gene expression in hTBEC 1 culture; format: cell-based, human; conditions: 1 μM; for Tas2R38tb (Ct): 3prime primer pair; for Tas2R38-5 (Ct): 5prime primer pair; for Tas2R38C (Ct): Tas2R38C DS primer pair; for Delta Tas2R38 3prime / Delta Tas2R38 5prime / Delta Tas2R38C DS: vs Bactin
Text: as §1

C=CCC(=NOS(=O)(=O)O)S[C@@H]1O[C@H](CO)[C@@H](O)[C@H](O)[C@H]1O (stereo in doubt) [sinigrin, reference compound]
Tas2R38tb (Ct) (TAS2R38 gene [1]; hTBEC 2, 24 hour): 27.722 | Tas2R38-5 (Ct) (TAS2R38 gene [1]; hTBEC 2, 24 hour): 27.234 | Tas2R38C (Ct) (TAS2R38 gene [1]; hTBEC 2, 24 hour): 25.730 | Delta Tas2R38 3prime (TAS2R38 gene [1]; hTBEC 2, 24 hour): 9.207 | Delta Tas2R38 5prime (TAS2R38 gene [1]; hTBEC 2, 24 hour): 9.355 | Delta Tas2R38C DS (TAS2R38 gene [1]; hTBEC 2, 24 hour): 7.766 | Tas2R38tb (Ct) (TAS2R38 gene [1]; hTBEC 2, 48 hour): 26.075 | Tas2R38-5 (Ct) (TAS2R38 gene [1]; hTBEC 2, 48 hour): 26.389 | Tas2R38C (Ct) (TAS2R38 gene [1]; hTBEC 2, 48 hour): 27.460 | Delta Tas2R38 3prime (TAS2R38 gene [1]; hTBEC 2, 48 hour): 8.077 | Delta Tas2R38 5prime (TAS2R38 gene [1]; hTBEC 2, 48 hour): 8.173 | Delta Tas2R38C DS (TAS2R38 gene [1]; hTBEC 2, 48 hour): 9.949 | Tas2R38tb (Ct) (TAS2R38 gene [2]; hTBEC 1, 24 hour): 32.123 | Tas2R38-5 (Ct) (TAS2R38 gene [2]; hTBEC 1, 24 hour): 32.238 | Tas2R38C (Ct) (TAS2R38 gene [2]; hTBEC 1, 24 hour): 29.116 | Delta Tas2R38 3prime (TAS2R38 gene [2]; hTBEC 1, 24 hour): 13.748 | Delta Tas2R38 5prime (TAS2R38 gene [2]; hTBEC 1, 24 hour): 14.240 | Delta Tas2R38C DS (TAS2R38 gene [2]; hTBEC 1, 24 hour): 11.093 | Tas2R38tb (Ct) (TAS2R38 gene [2]; hTBEC 1, 48 hour): 30.596 | Tas2R38-5 (Ct) (TAS2R38 gene [2]; hTBEC 1, 48 hour): 30.270 | Tas2R38C (Ct) (TAS2R38 gene [2]; hTBEC 1, 48 hour): 30.027 | Delta Tas2R38 3prime (TAS2R38 gene [2]; hTBEC 1, 48 hour): 12.599 | Delta Tas2R38 5prime (TAS2R38 gene [2]; hTBEC 1, 48 hour): 12.430 | Delta Tas2R38C DS (TAS2R38 gene [2]; hTBEC 1, 48 hour): 12.353

COc1cc(O)c(CC=C(C)C)c(O)c1C(=O)/C=C/c1ccc(O)cc1 [xanthohumol]
Tas2R38tb (Ct) (TAS2R38 gene [1]; hTBEC 2, 24 hour): 26.977 | Tas2R38-5 (Ct) (TAS2R38 gene [1]; hTBEC 2, 24 hour): 27.214 | Tas2R38C (Ct) (TAS2R38 gene [1]; hTBEC 2, 24 hour): 25.495 | Delta Tas2R38 3prime (TAS2R38 gene [1]; hTBEC 2, 24 hour): 7.461 | Delta Tas2R38 5prime (TAS2R38 gene [1]; hTBEC 2, 24 hour): 7.356 | Delta Tas2R38C DS (TAS2R38 gene [1]; hTBEC 2, 24 hour): 6.329 | Tas2R38tb (Ct) (TAS2R38 gene [1]; hTBEC 2, 48 hour): 26.985 | Tas2R38-5 (Ct) (TAS2R38 gene [1]; hTBEC 2, 48 hour): 27.026 | Tas2R38C (Ct) (TAS2R38 gene [1]; hTBEC 2, 48 hour): 25.038 | Delta Tas2R38 3prime (TAS2R38 gene [1]; hTBEC 2, 48 hour): 8.607 | Delta Tas2R38 5prime (TAS2R38 gene [1]; hTBEC 2, 48 hour): 9.250 | Delta Tas2R38C DS (TAS2R38 gene [1]; hTBEC 2, 48 hour): 7.210 | Tas2R38tb (Ct) (TAS2R38 gene [2]; hTBEC 1, 24 hour): 30.671 | Tas2R38-5 (Ct) (TAS2R38 gene [2]; hTBEC 1, 24 hour): 30.770 | Tas2R38C (Ct) (TAS2R38 gene [2]; hTBEC 1, 24 hour): 27.314 | Delta Tas2R38 3prime (TAS2R38 gene [2]; hTBEC 1, 24 hour): 12.714 | Delta Tas2R38 5prime (TAS2R38 gene [2]; hTBEC 1, 24 hour): 12.438 | Delta Tas2R38C DS (TAS2R38 gene [2]; hTBEC 1, 24 hour): 9.648 | Tas2R38tb (Ct) (TAS2R38 gene [2]; hTBEC 1, 48 hour): 31.539 | Tas2R38-5 (Ct) (TAS2R38 gene [2]; hTBEC 1, 48 hour): 29.788 | Tas2R38C (Ct) (TAS2R38 gene [2]; hTBEC 1, 48 hour): 28.949 | Delta Tas2R38 3prime (TAS2R38 gene [2]; hTBEC 1, 48 hour): 13.165 | Delta Tas2R38 5prime (TAS2R38 gene [2]; hTBEC 1, 48 hour): 12.016 | Delta Tas2R38C DS (TAS2R38 gene [2]; hTBEC 1, 48 hour): 11.093
